Strings that start with PEPTIDE1 are HELM notation: dots part the residues, brackets hold end groups and non-standard residues.
Assay: general procedure: Fmoc solid-phase peptide synthesis; Novasyn TGR resin (substitution 0.25 mmol g^-1); HBTU/HOBt/DIPEA; COMU/DIPEA for Fmoc-(S)-2-(4'-pentenyl)alanine
Details: whole synthesis, final yield, scale of the general procedure 25 μmol of resin-bound peptide (ring-closing metathesis)

PEPTIDE1{[ac].N.S.G.L.S.F.E.E.L.Y.R.N.A.Y.T.M.V.L.H.K.[am]}$$$$V2.0
isolated yield: 25%

— publication PMC4388676 (PLoS ONE, 2015)
